These are yes or no findings as the source states them, for the method shown. Binding seen in cells or lysates may run through a third protein. Some entries that bind do so weakly or less than the wild type.

Chains of the proteins cited; added tags and fusions are not shown. Lines headed by an entry give the natural chain unless they say otherwise; changes in a name come on top.
UniProt P24385: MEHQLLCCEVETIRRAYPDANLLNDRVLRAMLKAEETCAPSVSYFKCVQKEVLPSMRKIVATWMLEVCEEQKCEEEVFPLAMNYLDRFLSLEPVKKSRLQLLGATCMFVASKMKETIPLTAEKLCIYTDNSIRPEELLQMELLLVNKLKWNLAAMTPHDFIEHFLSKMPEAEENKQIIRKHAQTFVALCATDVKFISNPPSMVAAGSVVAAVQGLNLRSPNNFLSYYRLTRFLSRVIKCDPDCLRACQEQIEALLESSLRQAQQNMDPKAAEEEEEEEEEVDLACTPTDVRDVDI
UniProt P46527: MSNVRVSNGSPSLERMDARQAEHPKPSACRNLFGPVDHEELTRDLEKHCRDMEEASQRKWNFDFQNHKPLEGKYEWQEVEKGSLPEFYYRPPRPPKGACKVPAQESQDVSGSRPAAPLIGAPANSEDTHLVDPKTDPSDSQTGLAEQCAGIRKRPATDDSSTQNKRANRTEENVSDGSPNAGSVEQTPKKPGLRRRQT

The text below walks through data of patent publication US8173604.

For this test, the target named is cyclin D1/Cdk4 (transfected 293T cell extracts) (UniProt P24385). Put plainly: GST pull-down with cyclin D1/Cdk4 transfected 293T extracts (FIG. 4E).

In the case of “GST-p27 (p27 cDNA cloned into pGEX-2T) (from UniProt P46527 1-198)”, the binding entry was “binds”.
